Assay results: article PMC8551525
No constants are given. Whether binding was seen depends on the method and setting. Some entries that bind do so weakly or less than the wild type.

The chains behind the UniProt entries cited, without tags or fusion partners. Residues count along the entry.
UniProt P12277: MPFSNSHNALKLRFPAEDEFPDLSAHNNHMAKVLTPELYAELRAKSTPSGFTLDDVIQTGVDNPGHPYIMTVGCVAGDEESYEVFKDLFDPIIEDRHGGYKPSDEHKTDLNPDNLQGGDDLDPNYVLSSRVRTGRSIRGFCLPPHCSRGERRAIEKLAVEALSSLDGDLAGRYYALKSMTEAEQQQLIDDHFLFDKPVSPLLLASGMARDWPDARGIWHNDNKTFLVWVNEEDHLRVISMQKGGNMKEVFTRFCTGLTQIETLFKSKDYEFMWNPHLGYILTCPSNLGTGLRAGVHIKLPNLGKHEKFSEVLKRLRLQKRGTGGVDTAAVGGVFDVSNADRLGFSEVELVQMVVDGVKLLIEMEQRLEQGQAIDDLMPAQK
UniProt P31749, residues 2-446: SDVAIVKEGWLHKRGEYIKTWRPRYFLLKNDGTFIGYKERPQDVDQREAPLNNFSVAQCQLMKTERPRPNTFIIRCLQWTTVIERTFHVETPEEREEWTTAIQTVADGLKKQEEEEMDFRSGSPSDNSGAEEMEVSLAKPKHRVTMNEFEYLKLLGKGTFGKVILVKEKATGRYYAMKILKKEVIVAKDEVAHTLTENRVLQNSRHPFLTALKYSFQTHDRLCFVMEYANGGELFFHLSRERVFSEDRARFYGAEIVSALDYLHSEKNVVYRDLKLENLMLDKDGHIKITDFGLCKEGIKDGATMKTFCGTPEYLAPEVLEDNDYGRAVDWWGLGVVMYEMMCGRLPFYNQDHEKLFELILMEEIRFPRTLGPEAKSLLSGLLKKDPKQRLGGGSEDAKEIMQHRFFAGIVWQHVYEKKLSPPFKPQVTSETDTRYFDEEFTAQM

Target: His-tagged recombinant human CKB protein (human) (UniProt P12277)
Experiment: co-IP; 2ug purified his-AKT1 and his-CKB incubated at 4°C for 2h; anti-CKB antibody or rabbit IgG isotype control overnight at 4°C; Protein A/G agarose; immunoblot for AKT; both purified

- binding: binds
Substance: His-tagged recombinant human AKT1 protein (from UniProt P31749 2-446)
